{"sequences": {"note": "Sequences of proteins named here, by UniProt entry; tags and fusion partners are left off.", "UniProt Q8TCW9, whole entry": "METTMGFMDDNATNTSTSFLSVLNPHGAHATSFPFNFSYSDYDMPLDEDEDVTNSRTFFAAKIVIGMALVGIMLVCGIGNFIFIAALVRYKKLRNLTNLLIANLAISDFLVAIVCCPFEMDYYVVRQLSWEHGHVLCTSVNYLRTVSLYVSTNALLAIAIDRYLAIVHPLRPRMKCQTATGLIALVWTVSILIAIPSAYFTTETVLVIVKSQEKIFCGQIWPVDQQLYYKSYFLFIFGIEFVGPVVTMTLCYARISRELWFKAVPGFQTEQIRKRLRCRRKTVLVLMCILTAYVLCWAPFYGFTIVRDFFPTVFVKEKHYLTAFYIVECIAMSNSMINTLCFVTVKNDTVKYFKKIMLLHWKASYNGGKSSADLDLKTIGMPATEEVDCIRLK"}, "source": "patent US20080287445A1", "about": "“Prokineticin 2 receptor antagonists” (priority 2005, published 2008)", "molecular_target": "GPR73 (prokineticin 1 receptor) (Homo sapiens, UniProt Q8TCW9)", "assay": "PK1 functional assay: Ca2+ mobilization screening for PK1 antagonists on the FLIPR", "conditions": "HEK 293 GPR73 cells, multiple values = multiple testing", "experimental": "At a time of 24 h prior to running the assay, in cell culture media (DMEM containing high Glucose and L-glutamine, 10% FBS, 1% Pen/Streptomycin, 1% Sodium Pyruvate, 20 mM HEPES, Zeocin 200 mg/L), 100 μL of 1.3*10^6/ml HEK 293 GPR73 (prokineticin 1 receptor) expressing cells were plated in a 96 well poly-d-lysine coated plate (Costar), and incubated at 37 C and 5% CO2. On the day in which the assay was run, the media was removed and 200 μL of 5× Calcium Plus Dye (Molecular Devices) which was previously resuspended with 200 mL of assay buffer [HBSS w/Ca^2+ and Mg^2+ w/o phenol red, 20 mM HEPES, 0.1% BSA, 10 mL probenecid (710 mg probenecid in 5 mL of 1N NaOH, to which was then added 5 mL HBSS containing 20 mM HEPES)] was added to each well of the 96-well plate. The plate was incubated at 37 C and 5% CO2 for 30 min in dark. The plate was removed and allowed to reach RT for 15 min in the dark. The assay was then run on the FLIPR. In Brief: base line read for 1 min, compound added (25 μL) and incubated for 4 min, 15 seconds, PK1 ligand preparation added (25 μL) for a final concentration of a previously determined EC50 and fluorescence was counted for 1 min, 45 seconds. Baseline is described as the amount of relative fluorescence read when buffer alone is added to cells. Baseline was subtracted from all wells. Percent of control was calculated as follows: […]", "note": "The structures given here were assigned with low confidence; some may be wrong.", "data": [{"smiles": "COc1ccc(Cn2c(=O)nc(NCc3cnc(C)cc3C)n(Cc3ccncc3)c2=O)cc1", "note": "[Cpd 101]", "values": [{"measurement": "Ca^2+ Mobilization % Inh @ 10 μM", "setting": "10 μM compound", "value": 42, "unit": "%"}, {"measurement": "IC50", "setting": "read-out: Ca^2+ Mobilization IC50, PK1 ligand preparation at its EC50", "value": "> 10", "unit": "µM"}]}]}
